These are literature values, as cited in patent US20050085419A1, “Anti-growth factor receptor avidin fusion proteins as universal vectors for drug delivery” (The Regents of the University of California, priority 1999, published 2005).

For the data set the following is noted: after 60 min.

Consider `CN1CC[C@]23c4c5ccc(O)c4O[C@H]2[C@@H](O)C=C[C@H]3[C@H]1C5` [morphine], for which the brain uptake is 0.081 % ID/g.
